According to patent US20240391978A1, “APOLIPOPROTEIN FUSION PROTEINS FOR CELL-SPECIFIC IMMUNE REGULATION” (BIO-TRIP B.V., priority 2021, published 2024):

Tested on: Macrophages
Experiment: RNA sequencing of IL4-trained macrophages
Format: cell-based, human
Settings: before and after LPS re-stimulation on day 6

IL4: recombinant human interleukin 4
genes attenuated in IL4-trained macrophages: 249 genes
genes more strongly induced ('upregulated') in IL4-trained macrophages: 140 genes
